Reference: patent EP4772530A1, “PEPTIDE TARGETING SOMATOSTATIN RECEPTOR, DRUG CONJUGATE AND USE THEREOF” (Mainline Biosciences (Shanghai) Co., Ltd., priority 2023, dated 2025)
Where a name gives a salt, the structure may show the parent alone. At least one structure is not confirmed: it was looked up by name or label, or the drawing left a doubt.

Test system: Human multiple myeloma MM.1S cells
Test: EX3.3 in vivo pharmacodynamics, MM.1S subcutaneous xenograft model
Set-up: species or system CB17 SCID mice
Conditions: 18 days after the start of dosing; Ixazomib Citrate 4 mg/kg; p= 0.040
Experimental: Human multiple myeloma MM.1S cells were suspended and cultured in vitro in 1640 medium containing 10% fetal bovine serum, 100 U/mL penicillin, and 100 µg/mL streptomycin in a 5% CO2 incubator at 37°C. The suspended cells were collected by centrifugation twice a week and adherent cells were digested with trypsin-EDTA to prepare a cell suspension for subculture. When the cell saturation was 80%-90% and the cell number reached the requirement, the cells were collected, counted, and inoculated.
CB17 SCID mice, female, 6-8 weeks old, weighing 18-22 g, provided by Zhejiang Vital River Laboratory Animal Technology Co., Ltd. […]
The experimental indicators were used to investigate whether tumor growth was inhibited, delayed, or cured. The tumor diameter was measured twice a week using a vernier caliper. The tumor volume was calculated as follows: V = 0.5a×b^2, where a and b were the long and short diameters of the tumor, respectively.
The anti-tumor efficacy of the drug was evaluated based on TGI (%) or relative tumor proliferation rate T/C (%). […]
T/C (%) was calculated as follows:T/C (%)= TRTV/ CRTV× 100 %. Based on the results of tumor measurement, the relative tumor volume (RTV) was calculated as follows: RTV = Vt/V0, where V0 was the mean tumor volume measured at the time of grouping (i.e. d0), and Vt was the mean tumor volume at a certain measurement. […]

SMILES: CC(C)C[C@H](NC(=O)CNC(=O)c1cc(Cl)ccc1Cl)B1OC(=O)C(CC(=O)O)(CC(=O)O)O1 [Ixazomib Citrate]
- tumor inhibition compared to the vehicle control group: significant tumor inhibition
